{"source": "PubChem BioAssay AID2685", "about": "(National Center for Advancing Translational Sciences (NCATS), 2010)", "assay": "qHTS Assay for Lipid Storage Modulators in Drosophila S3 Cells;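 as to cell number change: cells counted by Cell Tracker Red CMTPX staining in the red channel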", "conditions": "BODIPY lipid droplet fluorescence, 18-24 h; for cell number change: measured here: cell count max response, cells fed with added oleic acid", "in_short": "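Laser-scanning cytometry quantifies lipid droplet accumulation (500–530 nm total intensity; droplet/cell object ratio) in oleic acid-fed (400 uM added) Drosophila S3 cells treated with a concentration series. 20 uM Triacsin C defined 100% inhibition.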", "key": {"[1]": {"conditions": "measured here: lipid fluorescence (Fed channel) AC50, cells fed with added oleic acid"}, "[2]": {"conditions": "measured here: cell number channel AC50, cells fed with added oleic acid"}}, "note": "The list shows a part of the results. These are further read-outs of the screen, such as a control signal, another cell line or another target. No call is given for them. Compounds called inactive in the main read-out are mostly missing here. Potencies come from curve fits of mixed quality, noted in brackets.", "data": [{"smiles": "COc1ccc(-c2noc(CSc3nnc(Cc4ccccc4)n3-c3cccc(C)c3)n2)cc1OC", "values": [{"measurement": "cell number change", "value": -27, "unit": "%"}]}, {"smiles": "O=C(Nc1ccccc1)OC1C2CCC1C(N1CCCCC1)CC2", "note": "(configuration not stated)", "values": [{"measurement": "cell number change", "value": 0.0641, "unit": "%"}, {"measurement": "AC50", "setting": "[1]", "value": "0.13 µM [falling, single point]"}]}, {"smiles": "CCOCCCn1c(=O)c2ccccc2n2c(=S)[nH]nc12", "values": [{"measurement": "AC50", "setting": "[2]", "value": "2.91 µM [rising, single point]"}, {"measurement": "AC50", "setting": "[1]", "value": "2.91 µM [rising, single point]"}]}, {"smiles": "CCOc1ccc(S(=O)(=O)NCc2cccs2)cc1C(C)C", "values": [{"measurement": "cell number change", "value": -15.5, "unit": "%"}]}, {"smiles": "C#CCOCCOCCOCCNc1nc(N2CCN(C(=O)CCCCCCCCCCNC(=O)Cn3cc(CCCCCN)nn3)CC2)nc(N2CCN(C(=O)CCCCCCCCCCNC(=O)[C@H]([C@@H](C)CC)n3cc(CCCCN=C(N)N)nn3)CC2)n1", "values": [{"measurement": "cell number change", "value": -19.3, "unit": "%"}, {"measurement": "AC50", "setting": "[1]", "value": "2.31 µM [falling, partial curve, poor fit]"}]}, {"smiles": "COc1ccc(Nc2nc(NCC3CCCO3)nc(N)c2[N+](=O)[O-])cc1", "note": "(configuration not stated)", "values": [{"measurement": "cell number change", "value": -43.6, "unit": "%"}, {"measurement": "AC50", "setting": "[2]", "value": "7.31 µM [falling, partial curve]"}, {"measurement": "AC50", "setting": "[1]", "value": "7.31 µM [falling, partial curve]"}]}, {"smiles": "CCCn1nc(NC(=O)c2ccccn2)c2cc3cc(C)ccc3nc21", "values": [{"measurement": "cell number change", "value": 37.4, "unit": "%"}, {"measurement": "AC50", "setting": "[2]", "value": "0.103 µM [rising, full curve]"}, {"measurement": "AC50", "setting": "[1]", "value": "0.58 µM [rising, single point]"}]}, {"smiles": "Cc1ccccc1OCc1nc(-c2ccc(NC(=O)c3ccco3)cc2)no1", "values": [{"measurement": "cell number change", "value": -67.9, "unit": "%"}, {"measurement": "AC50", "setting": "[2]", "value": "9.2 µM [falling, partial curve]"}, {"measurement": "AC50", "setting": "[1]", "value": "10.3 µM [falling, partial curve]"}]}, {"smiles": "Cc1ccc(CSCC(=O)NN=C2CCN(C)CC2)cc1", "values": [{"measurement": "cell number change", "value": 23.4, "unit": "%"}]}, {"smiles": "Cc1cc(Br)c(OCc2ccc(C(=O)N/N=C/c3ccc[nH]3)cc2)c(Br)c1", "values": [{"measurement": "cell number change", "value": -30.4, "unit": "%"}, {"measurement": "AC50", "setting": "[2]", "value": "29.1 µM [falling, partial curve, poor fit]"}]}, {"smiles": "O=C1CC2(CCN(C(=O)c3ccccc3F)CC2)Oc2ccccc21", "values": [{"measurement": "cell number change", "value": 7.13, "unit": "%"}, {"measurement": "AC50", "setting": "[1]", "value": "0.731 µM [falling, partial curve]"}]}, {"smiles": "Cc1ccc(-c2nnc(N3CCC(C)CC3)c3ccccc23)cc1", "values": [{"measurement": "cell number change", "value": 22.8, "unit": "%"}, {"measurement": "AC50", "setting": "[2]", "value": "0.517 µM [rising, partial curve, poor fit]"}]}, {"smiles": "CCOC(=O)N1CCN(c2ccc(C(=O)c3cccc(F)c3)cc2)CC1", "values": [{"measurement": "cell number change", "value": -18, "unit": "%"}, {"measurement": "AC50", "setting": "[1]", "value": "29.1 µM [falling, single point]"}]}, {"smiles": "NS(=O)(=O)c1ccc(Cl)cc1[N+](=O)[O-]", "values": [{"measurement": "cell number change", "value": -12.1, "unit": "%"}, {"measurement": "AC50", "setting": "[1]", "value": "29.1 µM [falling, single point]"}]}, {"smiles": "COc1ccc(Cl)cc1/C=C(\\C#N)C(N)=O", "values": [{"measurement": "cell number change", "value": 27.1, "unit": "%"}, {"measurement": "AC50", "setting": "[1]", "value": "29.1 µM [rising, single point]"}]}, {"smiles": "Cc1cc(C(=O)Nn2cnnc2)cs1", "values": [{"measurement": "cell number change", "value": 0.765, "unit": "%"}, {"measurement": "AC50", "setting": "[1]", "value": "29.1 µM [falling, single point]"}]}]}
